# Experimental data taken from PubChem BioAssay AID1471 (National Center for Advancing Translational Sciences (NCATS), 2008).
# About 310 (0.13%) of roughly 230,000 compounds were called active. The inconclusive results got no clear call from the source; some entries with a clear call stand among them for comparison. Calls come from the whole dose curve; as a rule, active = well fitted activation curve with a large enough effect; inconclusive = small, poorly fitted or top-dose-only effect; inactive = no such curve, though single readings can be large or run the other way. A potency beside an inconclusive call is a rough fit, not a confirmed value.
# Assay: qHTS Multiplex Assay to Identify Dual Action Probes in a Cell Model of Huntington: Cytoprotection (ATP); note: nearly all actives have a fitted effect of over 45% in size;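 for cytoprotection (ATP increase): toxic huntingtin expression switched on by the ecdysone agonist tebufenozide; % of control where 0% means no effect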
# Settings: PC12 HTT-Q103 induced, ATP luminescence, 40 h; cytoprotection (ATP increase): at 56.4 µM (top of the series) unless noted
# Method in brief: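 Quantitative HTS on tebufenozide-induced (100 nM) PC12 cells expressing HTTQ103 exon 1–GFP; compounds tested as a concentration series; survival measured via cellular ATP.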
# Potency is the fitted concentration of half-maximal effect.
SMILES,Potency,cytoprotection (ATP increase)
COc1cccc(CS(=O)(=O)c2ccccc2)c1,"inconclusive: 3.16 µM [activator, partial curve]",–
CC1(C)C(C=C(Cl)Cl)C1C(=O)OCc1cccc(Oc2ccccc2)c1 (centres undefined),"inconclusive: 0.1 µM [activator, full curve, poor fit]",–
CCCC1CCc2c(sc(N)c2C(N)=O)C1 (centres undefined),–,inactive: -12.4% [at 10 µM]
CCc1nnc(NC(=O)CCN(c2cc(C)cc(C)c2)S(=O)(=O)c2ccc(Cl)cc2)s1,–,inactive: -6.08% [at 10 µM]
COc1cc(C(C#N)N2CCOCC2)ccc1O (centres undefined),–,inactive: 0.98% [at 10 µM]
CCN(CC)S(=O)(=O)c1ccc(C)c(C)c1,"inconclusive: 3.16 µM [activator, single point]",–
O=C(O)[C@H](O)[C@@H](O)[C@H](O)[C@H](O)CO,"inconclusive: 0.708 µM [activator, full curve]",–
NC(=NCc1ccc(Cl)c(Cl)c1)NC(=O)c1nc(Cl)c(N)nc1N,–,inactive: -6.84% [at 1.9 µM]
CN(C)c1nc(N)c(C(=O)Nc2cccnc2)nc1Cl,–,inactive: -187%
O=C(Nc1cccc(Cl)c1)OCc1cncs1,"inconclusive: 0.501 µM [activator, partial curve]",–
CCc1nc(SCC(=O)Nc2nc3c(s2)CCCC3)c2ccccc2n1,active: 25.1 µM,–
O=C(CNC(=O)c1ccco1)OCC(=O)c1ccc(Cl)cc1Cl,"inconclusive: 0.794 µM [activator, single point]",–
CCOc1ccc(OCC)c(NC(=O)Cn2cccc2)c1,"inconclusive: 22.4 µM [activator, single point]",–
CCCCCCCCCCCCCCCCCCOC[C@H](COP(=O)([O-])OCC[N+](C)(C)C)OC,"inconclusive: 7.08 µM [activator, partial curve]",–
N/C(=N/OS(=O)(=O)c1ccc([N+](=O)[O-])cc1)c1ccncc1,"inconclusive: 0.0079 µM [activator, full curve, poor fit]",–
Cc1ccccc1NC(c1cccc(Cl)c1)c1nnnn1C1CCCCC1 (centres undefined),"inconclusive: 5.62 µM [activator, single point]",–
COCCN(Cc1cc2cc(C)c(C)cc2nc1Cl)C(=O)N1CCOCC1,–,inactive: -5.41% [at 10 µM]
CCCC(C(=O)NCc1ccco1)N(C(=O)CNS(=O)(=O)c1ccccc1)c1ccc(OC)cc1 (centres undefined),"inconclusive: 5.62 µM [activator, single point]",–
Cc1ccc(S(=O)(=O)N(CC(=O)N2CCN(c3ccc(F)cc3)CC2)C2CCCCC2)cc1,–,inactive: -30.8%
O=C(Nc1ccccc1)c1ccc(S(=O)(=O)N2CCOCC2)cc1,–,inactive: 6.12%
COc1cc(-c2nc3ccc(N4CCN(C)CC4)cc3[nH]2)cc(OC)c1OC,–,inactive: 6.9% [at 10 µM]
N#Cc1ccc(CN2CC3(CCN(C(=O)c4cnccn4)CC3)C2)cc1,"inconclusive: 14.1 µM [activator, single point]",–
CS(=O)(=O)N(CC(=O)NCc1ccco1)c1cccc([N+](=O)[O-])c1,–,inactive: -15.6%

SMILES,Potency,cytoprotection (ATP increase)
CC(=O)NCCNC(=O)c1ccc(-n2c(C)ccc2C)cc1,"inconclusive: 12.6 µM [activator, single point]",–
O=C(O)CNC(=O)c1ccccc1,"inconclusive: 0.282 µM [activator, full curve]",–
CCCSC1=C(C#N)C(c2cccs2)CC(=O)N1 (centres undefined),–,inactive: 8.37% [at 10 µM]
O=C(c1csnn1)N1CCC2(CC1)CN(c1ccncc1)C2,"inconclusive: 31.6 µM [activator, single point]",–
Nc1[nH]nc2nc3ccccc3nc12,"inconclusive: 1.12 µM [activator, single point]",–
Cc1cc(C(=O)Cn2nnc3ccccc3c2=O)c(C)n1-c1c(C)n(C)n(-c2ccccc2)c1=O,"inconclusive: 3.16 µM [activator, single point]",–
COc1ccc(CCNC(=O)CSc2nnnn2-c2ccccc2)cc1,–,inactive: 1.21%
CCN(CC)S(=O)(=O)c1cccc(C(=O)c2c(C)cc3ccccn23)c1,–,inactive: 27.4% [at 10 µM]
CCCCNC(=S)N(C)/N=C/c1ccc(OCc2ccc(C(=O)OC)cc2)c(OC)c1,"inconclusive: 0.891 µM [activator, partial curve]",–
COc1ccc(N2CCN(C(=O)C3CC(=O)N(c4ccc(C)cc4)C3)CC2)cc1 (centres undefined),"inconclusive: 1.26 µM [activator, single point]",–
CCOC(=O)c1c(C)c(C(=O)OCC)n(C)c1C,–,inactive: -3.26% [at 10 µM]
Cc1cc(N2CCN(c3ccccc3)CC2)nc(-c2ccccc2O)n1,"inconclusive: 3.16 µM [activator, single point]",–
S=C(NC1CCCCC1)N1CCC([C@H]2C=NC=N2)CC1,"inconclusive: 2 µM [activator, full curve]",–
Cn1c(=O)c2c(-c3ccccc3)n3c4ccccc4ncc3c2n(C)c1=O,"inconclusive: 25.1 µM [activator, single point]",–
CCOC(=O)C1=NOC2C(=O)N(c3ccc(Cl)cc3Cl)C(=O)C12 (centres undefined),"inconclusive: 0.708 µM [activator, single point]",–
CC(C)(C)NC(=O)C(c1ccncc1)N(Cc1ccc(F)cc1)C(=O)c1ccc(-c2ccccc2)[nH]1 (centres undefined),"inconclusive: 31.6 µM [activator, single point]",–
Cc1ccccc1Nc1oc(-c2ccccc2)nc1-c1ccccc1,"inconclusive: 31.6 µM [activator, single point]",–
CC(C)C1CCC(C(=O)NC(Cc2ccccc2)C(=O)O)CC1 (centres undefined),"inconclusive: 0.355 µM [activator, full curve]",–
CCOC(=O)CSc1nc2ccccc2c(=O)n1Cc1ccco1,"inconclusive: 5.62 µM [activator, single point]",–
Cn1c(=O)c2c(nc(N3CCN(Cc4ccccc4)CC3)n2CCSc2ncccn2)n(C)c1=O,–,inactive: -2.76% [at 10 µM]
CN(C)Cc1ccccc1-c1nc(NCc2ccccc2)c2ccccc2n1,–,inactive: -45.4%
COc1ccc([C@@H]2CNC(=O)C2)cc1OC1CCCC1,"inconclusive: 39.8 µM [activator, single point]",–
Cc1cccc2sc(NC(=O)c3ccc(OCC4CCCO4)cc3)nc12 (centres undefined),"inconclusive: 1.41 µM [activator, partial curve]",–

# Some of these compounds in order of molecular weight, high to low:
SMILES,Potency,cytoprotection (ATP increase)
CCOC(=O)C1=NOC2C(=O)N(c3ccc(Cl)cc3Cl)C(=O)C12 (centres undefined),"inconclusive: 0.708 µM [activator, single point]",–
CC(C)C1CCC(C(=O)NC(Cc2ccccc2)C(=O)O)CC1 (centres undefined),"inconclusive: 0.355 µM [activator, full curve]",–
CCCSC1=C(C#N)C(c2cccs2)CC(=O)N1 (centres undefined),–,inactive: 8.37% [at 10 µM]

# Next results

SMILES,Potency,cytoprotection (ATP increase)
O=C(c1ccc([N+](=O)[O-])cc1)N1CCSC1c1ccccc1Cl (centres undefined),"inconclusive: 31.6 µM [activator, single point]",–
C=CCC(O)c1ccccc1 (centres undefined),"inconclusive: 3.98 µM [activator, single point]",–
CC(=O)OC1CC2C(C)(C)C(=O)C=C[C@]2(C)C2CC[C@@]3(C)C(c4ccoc4)OC(=O)C4O[C@@]43[C@]12C (some centres undefined),"inconclusive: 11.2 µM [activator, single point]",–
O=C(c1cnccn1)N1CCC2(CC1)CCN(C(c1ccccc1)c1ccccc1)CC2,"inconclusive: 0.0251 µM [activator, full curve, poor fit]",–
N[C@H]1CCN(O)C1=O,"inconclusive: 15.8 µM [activator, partial curve, poor fit]",–
COc1cccc(Nc2ncc3nc(-c4ccc(Cl)cc4)c(=O)n(C[C@H]4CCCO4)c3n2)c1,"inconclusive: 31.6 µM [activator, partial curve]",–
CC1CCCN(c2c([N+](=O)[O-])cc(C(=O)O)cc2[N+](=O)[O-])C1 (centres undefined),"inconclusive: 35.5 µM [activator, single point]",–
CCCCCCCCCCCCCCCCCC(=O)O,"inconclusive: 31.6 µM [activator, single point]",–
CC(=O)NNc1nc(-c2ccccc2)cs1,"inconclusive: 35.5 µM [activator, single point]",–
CCC(=O)c1ccc(OCC(=O)NCCc2ccccn2)cc1,"inconclusive: 12.6 µM [activator, partial curve, poor fit]",–
COc1ccc(CN(CCC#N)C(=S)NC(=O)c2ccccc2)cc1,–,inactive: 17.2%
Cc1cc(C(=O)COC(=O)CNC(=O)c2ccc(F)cc2)c(C)n1Cc1ccco1,"inconclusive: 2.51 µM [activator, single point]",–
CCOc1cc(/C=C2/COc3ccccc3C2=O)ccc1OCC(=O)N(C)C,"inconclusive: 6.31 µM [activator, partial curve]",–
O=C(NCc1ccccc1)c1ccc(Oc2ccc(C(=O)NCc3ccccc3)cc2)cc1,"inconclusive: 0.891 µM [activator, single point]",–
Cc1c(C)c2c(c(C)c1O)CC[C@@](C)(CCC[C@@H](C)CCC[C@@H](C)CCCC(C)C)O2,"inconclusive: 1.12 µM [activator, partial curve]",–
N/C(=N\OC(=O)Cc1ccc(-c2ccccc2)cc1)c1cccnc1,–,inactive: -18.2%
COc1cccc(NC(=O)NC(C)C2CC3CCC2C3)c1 (centres undefined),–,inactive: -68%
O=C1CNC(=O)/C(=C/c2ccco2)N1,"inconclusive: 6.31 µM [activator, single point]",–
CCOC(=O)C1CCN(C(c2cccnc2)c2c(NC(=O)c3ccco3)sc(C)c2C)CC1 (centres undefined),–,inactive: 28%
CC(=O)OC/C=C(C)/C=C/C=C(C)/C=C/C1=C(C)CCCC1(C)C,inactive,–
COc1ccc(N2CCN(C(=O)Nc3ccccc3C)CC2)cc1,"inconclusive: 35.5 µM [activator, partial curve, poor fit]",–
CCn1c(-c2ccc(-c3ccccc3)cc2)c[nH]c1=S,–,inactive: -28.5%
O=C(CSc1nc2cc([N+](=O)[O-])ccc2n1-c1ccccc1)NCc1ccc2c(c1)OCO2,"inconclusive: 3.16 µM [activator, single point]",–

# Quoted from the listing.
# `O=C(CNC(=O)c1ccco1)OCC(=O)c1ccc(Cl)cc1Cl` | Potency: inconclusive: 0.794 µM [activator, single point]
# `Cn1c(=O)c2c(-c3ccccc3)n3c4ccccc4ncc3c2n(C)c1=O` | Potency: inconclusive: 25.1 µM [activator, single point]
